Experimental data: article PMC11936160
Results are given in words; binding and its absence hold for the method and conditions named. Binding seen in cells or lysates may run through a third protein. Some entries that bind do so weakly or less than the wild type.

Chains of the proteins cited; added tags and fusions are not shown. Residues count along the entry.
UniProt P11021, residues 19-654: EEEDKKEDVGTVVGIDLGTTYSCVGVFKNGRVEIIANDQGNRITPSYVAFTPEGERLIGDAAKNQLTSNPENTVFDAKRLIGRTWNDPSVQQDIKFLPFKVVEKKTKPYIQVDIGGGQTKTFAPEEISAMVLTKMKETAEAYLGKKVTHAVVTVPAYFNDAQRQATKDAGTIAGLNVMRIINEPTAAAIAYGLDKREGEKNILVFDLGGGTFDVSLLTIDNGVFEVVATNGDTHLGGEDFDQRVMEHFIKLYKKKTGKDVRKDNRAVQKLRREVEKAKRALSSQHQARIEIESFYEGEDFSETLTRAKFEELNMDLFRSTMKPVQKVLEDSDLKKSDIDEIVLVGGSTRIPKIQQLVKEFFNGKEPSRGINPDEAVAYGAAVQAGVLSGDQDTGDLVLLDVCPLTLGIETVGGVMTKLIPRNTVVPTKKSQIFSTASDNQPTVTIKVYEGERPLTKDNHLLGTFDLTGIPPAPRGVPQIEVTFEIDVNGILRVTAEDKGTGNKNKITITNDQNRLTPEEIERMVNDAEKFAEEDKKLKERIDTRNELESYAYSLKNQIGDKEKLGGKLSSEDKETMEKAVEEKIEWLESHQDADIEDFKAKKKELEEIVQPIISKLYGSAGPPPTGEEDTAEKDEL

Molecular target: recombinant NS3 of DENV 2 tagged with EGFP (dengue virus 2 (DENV 2)) (UniProt P29990)
Assay: co-IP

GRP78, endogenous (from UniProt P11021 19-654)
binding: binds
